# Structures can show the parent of a compound that is named as a salt. The list shows a part of the results. Repeats in this data set agree poorly, so a single value says little.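 JEG3 cells stably carry tetracycline-induced wild-type human LRH-1, a heavily sumoylated nuclear receptor. APOC3 and MUC1 are SUMO-sensitive transcripts, raised by SUMO-less LRH-1 or UBC9 knockdown, measured by RT-qPCR against TBP and DMSO controls. A robust Z-score above +2 or below -2 marked a primary hit before toxicity and TBP filtering.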
# Test system: JEG3 expressing hLRH-1
# Assay: APOC3 transcript change (ddCt vs TBP and DMSO), Z-score over library; higher = higher APOC3 expression
# Details: 10 µM; time (hr): 24
row,SMILES,APOC3 transcript change (Z-score)
1,COc1ccccc1O [guaiacol],-0.509
2,CN1CCc2cccc3c2C1Cc1ccc(O)c(O)c1-3 (centres undefined) [apomorphine hydrochloride],0.77
3,COc1cnc(NS(=O)(=O)c2ccc(N)cc2)nc1 [sulfameter],0.239
4,Cc1cnc(C(=O)NCCc2ccc(S(=O)(=O)NC(=O)NC3CCCCC3)cc2)cn1 [Glipizide],-1.39
5,NC[C@H]1O[C@H](O[C@H]2[C@H](O)[C@@H](O[C@H]3O[C@H](CO)[C@@H](O)[C@H](N)[C@H]3O)[C@H](N)C[C@@H]2N)[C@H](N)C[C@@H]1O [tobramycin],0.41
6,CCc1nc(N)nc(N)c1-c1ccc(Cl)cc1 [pyrimethamine],-0.011
7,O=S(=O)(O)c1cc(I)c(O)c2ncccc12 [chiniofon],-0.0719
8,CCN(CC)CCOC(=O)C(c1ccccc1)C1CCCCC1 (centres undefined) [drofenine hydrochloride],-1.48
9,OC[C@H]1O[C@@H](O[C@H]2[C@H](O)[C@@H](O)[C@@H](O)O[C@@H]2CO)[C@H](O)[C@@H](O)[C@H]1O [lactose monohydrate],0.446
10,COc1ccc(-c2cc(=O)c3c(O)cc(O[C@@H]4O[C@H](CO[C@@H]5O[C@@H](C)[C@H](O)[C@@H](O)[C@H]5O)[C@@H](O)[C@H](O)[C@H]4O)cc3o2)cc1O [diosmin],0.163
11,COc1ccc(C(=O)c2ccc(C)cc2)c(O)c1 [mexeneone],0.0105
12,NC(=O)NC(=O)Cc1ccccc1 [phenacemide],-0.324
13,Clc1ccc(COC(Cn2ccnc2)c2ccc(Cl)cc2Cl)cc1 (centres undefined) [econazole nitrate],0.446
14,O=C(O)c1ccccc1 [benzoic acid],0.263
15,C[n+]1ccccc1/C=N/O [Pralidoxime iodide],-0.178
16,OC[C@@H](O)[C@@H](O[C@@H]1O[C@H](CO)[C@H](O)[C@H](O)[C@H]1O)[C@H](O)[C@@H](O)CO [lacitol],-0.602
17,CC(=O)Oc1ccccc1C(=O)Nc1ncc([N+](=O)[O-])s1 [nitazoxanide],0.447
18,Cc1cc2c(cc1S(N)(=O)=O)S(=O)(=O)CCC2 [meticrane],0.0172
19,O=C1[O][Bi]([OH])[O]c2ccccc21 [bismuth subsalicylate],1.46
20,CC1(C)C(C(=O)O)N2C(=O)C[C@H]2S1(=O)=O (some centres undefined) [sulbactam],4.29
21,CO/N=C(\C(=O)N[C@@H]1C(=O)N2C(C(=O)O)=C(C[N+]3(C)CCCC3)CS[C@H]12)c1csc(N)n1 [cefepime hydrochloride],0.76
22,COc1cc2c(cc1OC)C(=O)C(CC1CCN(Cc3ccccc3)CC1)C2 (centres undefined) [donepizil hydrochloride],0.283
23,CC(=O)N[C@@H](Cc1ccccc1)C(=O)O [afalanine],-0.451
24,CCCCC(=O)O[C@]1(C(=O)CO)CC[C@H]2[C@@H]3CCC4=CC(=O)CC[C@]4(C)[C@H]3[C@@H](O)C[C@@]21C [hydrocortisone valerate],0.643
25,Cc1noc(NS(=O)(=O)c2ccc(N)cc2)c1C [sulfisoxazole],-0.0918
26,c1ccc([C@H]2CN3CCSC3=N2)cc1 [levamisole hydrochloride],-0.316
27,COc1cc2nc(N(C)CCCNC(=O)C3CCCO3)nc(N)c2cc1OC (centres undefined) [alfuzosin hydrochloride],0.462

row,SMILES,APOC3 transcript change (Z-score)
1,O=C(Nc1ccccc1)c1ccccc1O [salicylanilide],0.275
2,CC(C)COC(=O)c1ccc(N)cc1 [isobutamben],0.136
3,CC(=O)CC(c1ccccc1)c1c(O)oc2ccccc2c1=O (centres undefined) [warfarin],-0.534
4,C=CCSCC1Nc2cc(Cl)c(S(N)(=O)=O)cc2S(=O)(=O)N1 (centres undefined) [althiazide],1.1
5,Cc1cc(/C=C/c2ccc3cc(N(C)C)ccc3[n+]2C)c(C)n1-c1ccccc1 [pyrvinium pamoate],0.278
6,C[C@@H]1CC2C3CCC4=CC(=O)C=C[C@]4(C)[C@@]3(F)[C@@H](O)C[C@]2(C)[C@H]1C(=O)CO (some centres undefined) [desoxymetasone],1.15
7,CC(=O)O[C@H]1C(=O)[C@@]2(C)C([C@H](OC(=O)c3ccccc3)[C@]3(O)C[C@H](OC(=O)[C@H](O)[C@@H](NC(=O)c4ccccc4)c4ccccc4)C(C)=C1C3(C)C)[C@]1(OC(C)=O)CO[C@@H]1C[C@@H]2O (some centres undefined) [Taxol],2.93
8,C/C=C(/C(=C/C)c1ccc(O)cc1)c1ccc(O)cc1 [dienestrol],-1.63
9,CC(=O)Nc1ccc(O)cc1 [acetaminophen],0.564
10,CC(C)(C(=O)O)c1ccc(C(O)CCCN2CCC(C(O)(c3ccccc3)c3ccccc3)CC2)cc1 (centres undefined) [fexofenadine hydrochloride],0.52
11,NCCCC(N)C(=O)O (centres undefined) [ornithine aketoglutarate],0.834
12,O=C(Nc1ccccc1)OCC(CN1CCCCC1)OC(=O)Nc1ccccc1 (centres undefined) [diperodon hydrochloride],0.887
13,NC(Cc1ccc(O)cc1)C(=O)O (centres undefined) [tyrosine],-0.172
14,N=C(N)N/N=C/c1c(Cl)cccc1Cl [guanabenz acetate],-0.258
15,Cc1ccc2c(Cl)cc(Cl)c(O)c2n1 [chlorquinaldol],-1.52
16,CN(C)CCOC(=O)COc1ccc(Cl)cc1 [meclofenoxate hydrochloride],0.19
17,O=C(O)c1ccccc1OP(=O)(O)O [fosfosal],-0.777
18,COC(=O)N/N=C/c1c[n+]([O-])c2ccccc2[n+]1[O-] [carbadox],0.249
19,COC(=O)C(N)CS (centres undefined) [mecysteine hydrochloride],0.164
20,CC(N)C12CC3CC(CC(C3)C1)C2 (centres undefined) [rimantadine hydrochloride],0.111
21,O=C(O)c1cc(-c2ccccc2)nc2ccccc12 [cinchophen],0.77
22,COc1ccc2cc1Oc1ccc(cc1)C[C@H]1c3c(cc4c(c3Oc3cc5c(cc3OC)CCN(C)[C@@H]5C2)OCO4)CCN1C [cepharanthine],1.31
23,O=C1c2ccccc2C(=O)C1c1ccccc1 [phenindione],0.624
24,CN1CC(=O)N=C1N [creatinine],0.527
25,CN1CCN2c3ccccc3Cc3ccccc3C2C1 (centres undefined) [Mianserin hydrochloride],0.756
26,CCC(C)C1NC(=O)C(CCN)NC(=O)C(NC(=O)C(CCN)NC(=O)C(NC(=O)C(CCN)NC(=O)CCCCC(C)C)C(C)O)CCNC(=O)C(C(C)O)NC(=O)C(CCN)NC(=O)C(CCN)NC(=O)C(C(C)CC)NC1=O (centres undefined) [colistin sulfate],0.679
27,Cc1scc2c1N(C(=O)CN1CCN(C)CC1)c1ccccc1NC2=O [Telenzepine dihydrochloride],0.0442

row,SMILES,APOC3 transcript change (Z-score)
1,OC[C@H]1O[C@@H](O[C@@H]2[C@@H](CO)OC(O)(CO)[C@H]2O)[C@H](O)[C@@H](O)[C@H]1O (mixture of isomers) [lactulose],-1.36
2,CN(C)CCC(c1ccc(Br)cc1)c1ccccn1 (centres undefined) [brompheniramine maleate],-0.383
3,CCCC(=O)Nc1ncnc2c1ncn2[C@@H]1O[C@@H]2COP(=O)(O)O[C@H]2[C@H]1OC(=O)CCC [bucladesine],0.437
4,O=C(O)CCCc1ccccc1 [phenylbutyric acid],0.483
5,CC1=CC(=O)NS(=O)(=O)O1 [acesulfame potassium],-0.0268
6,CCOc1cc(CC(=O)N[C@@H](CC(C)C)c2ccccc2N2CCCCC2)ccc1C(=O)O [repaglinide],-0.00412
7,O=C1C(O)=C(O)O[C@@H]1C(O)CO (some centres undefined) [ascorbic acid],0.566
8,CN[C@@H]1C(OC2[C@H](O[C@H]3[C@H](O)[C@@H](O)[C@H](N=C(N)N)[C@@H](O)[C@@H]3N=C(N)N)OC(C)[C@]2(O)CO)OC(CO)C(O)C1O (some centres undefined) [dihydrostreptomycin sulfate],1.04
9,CN(C)C(=N)N=C(N)N [metformin hydrochloride],0.959
10,CCN1CCN(C(=O)N[C@@H](C(=O)N[C@@H]2C(=O)N3[C@@H]2SC(C)(C)[C@@H]3C(=O)O)c2ccccc2)C(=O)C1=O [piperacillin sodium],0.416
11,CC(=O)Oc1cccc(O)c1 [resorcinol monoacetate],0.255
12,CN(C)CCc1c[nH]c2ccc(Cn3cncn3)cc12 [rizatriptan benzoate],-1.26
13,COc1ccc(NS(=O)(=O)c2ccc(N)cc2)nn1 [sulfamethoxypyridazine],0.483
14,O=C(CCBr)N1CCN(C(=O)CCBr)CC1 [pipobroman],-0.346
15,Cc1ccc(S(=O)(=O)NC(=O)NN2CC3CCCC3C2)cc1 (centres undefined) [gliclazide],0.422
16,CO[C@@]1(NC(=O)Cc2cccs2)C(=O)N2C(C(=O)O)=C(COC(N)=O)CS[C@@H]21 [cefoxitin sodium],-0.207
17,CC1(C)OC(=O)NC1=O [dimethadione],0.431
18,C=C[C@H]1CN2CC[C@H]1C[C@@H]2[C@H](O)c1ccnc2ccc(OC)cc12 [quinine sulfate],1.08
19,Cc1ncc(CSSCc2cnc(C)c(O)c2CO)c(CO)c1O [pyritinol],-0.256
20,C=C1C[C@H]2[C@@H]3C=C(C)C4=CC(=O)CC[C@]4(C)[C@H]3CC[C@]2(C)[C@@]1(OC(C)=O)C(C)=O [melengestrol acetate],0.049
21,CC(C(=O)O)c1ccc(N2Cc3ccccc3C2=O)cc1 (centres undefined) [indoprofen],0.112
22,O=C(O)c1cc(=O)c2ccccc2o1 [chromocarb],0.301
23,CC(=O)c1ccc2c(c1)N(CCCN1CCC(CCO)CC1)c1ccccc1S2 [piperacetazine],0.0402
24,COc1cc(/C=C/C(N)=O)cc(OC)c1OC [cintriamide],0.37
25,NCCS(=O)(=O)O [taurine],-0.788

# Part of the list above, with bars between the fields:
row | SMILES | APOC3 transcript change (Z-score)
10 | CCN1CCN(C(=O)N[C@@H](C(=O)N[C@@H]2C(=O)N3[C@@H]2SC(C)(C)[C@@H]3C(=O)O)c2ccccc2)C(=O)C1=O [piperacillin sodium] | 0.416
11 | CC(=O)Oc1cccc(O)c1 [resorcinol monoacetate] | 0.255
12 | CN(C)CCc1c[nH]c2ccc(Cn3cncn3)cc12 [rizatriptan benzoate] | -1.26
